Results deposited as PubChem BioAssay AID1508597 (Cure First, 2020).

Screen: 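Survival screen with siRNA in ovarian cancer cells derived from patients, with or without rucaparib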 (primary screen)
Cell system: human ovarian carcinoma lines grown from tumours: OCI-P5x (papillary serous) and OCI-C5x (clear cell)
Knock-down reagent: siRNA pool against human genes, 1.25 pmol siRNA per well
Time to read-out: 72 h or 96 h, depending on the cell culture
Conditions: rucaparib 20 µM (about IC30) or vehicle, present until read-out
Detection: 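ATP luminescence measured at 72 or 96 h according to the culture, then normalised and expressed as percent viability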
Scale: viability, normalised: higher = more viable cells remaining
Rule for the call: 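Active when normalised viability falls below 80 percent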
Meaning of the calls: active = viability under 80%; inactive = viability 80% or more
The whole screen tested about 2,100 reagents; this is an unselected part. 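Calls flag viability under 80% in either arm, not effects specific to rucaparib; the reference for percent is not stated.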 Not stated in the record: the 100% reference.

{"gene knocked down":"HMGN2 (high mobility group nucleosomal binding domain 2)","rucaparib or vehicle":"Rucaparib","cell line":"OCI-C5x (clear cell)","technical replicate":"1","viability, normalised (%)":57.2,"activity call":"active"}
{"gene knocked down":"HMGN2 (high mobility group nucleosomal binding domain 2)","rucaparib or vehicle":"Rucaparib","cell line":"OCI-C5x (clear cell)","technical replicate":"2","viability, normalised (%)":50.6,"activity call":"active"}
{"gene knocked down":"HMGN2 (high mobility group nucleosomal binding domain 2)","rucaparib or vehicle":"Rucaparib","cell line":"OCI-C5x (clear cell)","technical replicate":"3","viability, normalised (%)":49.3,"activity call":"active"}
{"gene knocked down":"HMGN2 (high mobility group nucleosomal binding domain 2)","rucaparib or vehicle":"Rucaparib","cell line":"OCI-P5x (serous)","technical replicate":"1","viability, normalised (%)":61,"activity call":"active"}
{"gene knocked down":"HMGN2 (high mobility group nucleosomal binding domain 2)","rucaparib or vehicle":"Rucaparib","cell line":"OCI-P5x (serous)","technical replicate":"2","viability, normalised (%)":53,"activity call":"active"}
{"gene knocked down":"HMGN2 (high mobility group nucleosomal binding domain 2)","rucaparib or vehicle":"Rucaparib","cell line":"OCI-P5x (serous)","technical replicate":"3","viability, normalised (%)":68.3,"activity call":"active"}
{"gene knocked down":"HMGN2 (high mobility group nucleosomal binding domain 2)","rucaparib or vehicle":"Vehicle","cell line":"OCI-C5x (clear cell)","technical replicate":"1","viability, normalised (%)":74.6,"activity call":"active"}
{"gene knocked down":"HMGN2 (high mobility group nucleosomal binding domain 2)","rucaparib or vehicle":"Vehicle","cell line":"OCI-C5x (clear cell)","technical replicate":"2","viability, normalised (%)":65.3,"activity call":"active"}
{"gene knocked down":"HMGN2 (high mobility group nucleosomal binding domain 2)","rucaparib or vehicle":"Vehicle","cell line":"OCI-C5x (clear cell)","technical replicate":"3","viability, normalised (%)":62.9,"activity call":"active"}
{"gene knocked down":"HMGN2 (high mobility group nucleosomal binding domain 2)","rucaparib or vehicle":"Vehicle","cell line":"OCI-P5x (serous)","technical replicate":"1","viability, normalised (%)":63.4,"activity call":"active"}
{"gene knocked down":"HMGN2 (high mobility group nucleosomal binding domain 2)","rucaparib or vehicle":"Vehicle","cell line":"OCI-P5x (serous)","technical replicate":"2","viability, normalised (%)":61.2,"activity call":"active"}
{"gene knocked down":"HMGN2 (high mobility group nucleosomal binding domain 2)","rucaparib or vehicle":"Vehicle","cell line":"OCI-P5x (serous)","technical replicate":"3","viability, normalised (%)":78.1,"activity call":"active"}
{"gene knocked down":"PDK3 (pyruvate dehydrogenase kinase 3)","rucaparib or vehicle":"Rucaparib","cell line":"OCI-C5x (clear cell)","technical replicate":"1","viability, normalised (%)":30.5,"activity call":"active"}
{"gene knocked down":"PDK3 (pyruvate dehydrogenase kinase 3)","rucaparib or vehicle":"Rucaparib","cell line":"OCI-C5x (clear cell)","technical replicate":"2","viability, normalised (%)":49.4,"activity call":"active"}
{"gene knocked down":"PDK3 (pyruvate dehydrogenase kinase 3)","rucaparib or vehicle":"Rucaparib","cell line":"OCI-C5x (clear cell)","technical replicate":"3","viability, normalised (%)":69.7,"activity call":"active"}
{"gene knocked down":"PDK3 (pyruvate dehydrogenase kinase 3)","rucaparib or vehicle":"Rucaparib","cell line":"OCI-P5x (serous)","technical replicate":"1","viability, normalised (%)":97.7,"activity call":"inactive"}
{"gene knocked down":"PDK3 (pyruvate dehydrogenase kinase 3)","rucaparib or vehicle":"Rucaparib","cell line":"OCI-P5x (serous)","technical replicate":"2","viability, normalised (%)":122,"activity call":"inactive"}
{"gene knocked down":"PDK3 (pyruvate dehydrogenase kinase 3)","rucaparib or vehicle":"Rucaparib","cell line":"OCI-P5x (serous)","technical replicate":"3","viability, normalised (%)":111,"activity call":"inactive"}
{"gene knocked down":"PDK3 (pyruvate dehydrogenase kinase 3)","rucaparib or vehicle":"Vehicle","cell line":"OCI-C5x (clear cell)","technical replicate":"1","viability, normalised (%)":62.7,"activity call":"active"}
{"gene knocked down":"PDK3 (pyruvate dehydrogenase kinase 3)","rucaparib or vehicle":"Vehicle","cell line":"OCI-C5x (clear cell)","technical replicate":"2","viability, normalised (%)":60.7,"activity call":"active"}
{"gene knocked down":"PDK3 (pyruvate dehydrogenase kinase 3)","rucaparib or vehicle":"Vehicle","cell line":"OCI-C5x (clear cell)","technical replicate":"3","viability, normalised (%)":40.3,"activity call":"active"}
{"gene knocked down":"PDK3 (pyruvate dehydrogenase kinase 3)","rucaparib or vehicle":"Vehicle","cell line":"OCI-P5x (serous)","technical replicate":"1","viability, normalised (%)":109,"activity call":"inactive"}
{"gene knocked down":"PDK3 (pyruvate dehydrogenase kinase 3)","rucaparib or vehicle":"Vehicle","cell line":"OCI-P5x (serous)","technical replicate":"2","viability, normalised (%)":100,"activity call":"inactive"}
{"gene knocked down":"PDK3 (pyruvate dehydrogenase kinase 3)","rucaparib or vehicle":"Vehicle","cell line":"OCI-P5x (serous)","technical replicate":"3","viability, normalised (%)":83.7,"activity call":"inactive"}

2 entries already listed, arranged by “viability, normalised (%)”, highest first:
{"gene knocked down":"HMGN2 (high mobility group nucleosomal binding domain 2)","rucaparib or vehicle":"Rucaparib","cell line":"OCI-P5x (serous)","technical replicate":"1","viability, normalised (%)":61,"activity call":"active"}
{"gene knocked down":"HMGN2 (high mobility group nucleosomal binding domain 2)","rucaparib or vehicle":"Rucaparib","cell line":"OCI-P5x (serous)","technical replicate":"2","viability, normalised (%)":53,"activity call":"active"}

The listing continues:
{"gene knocked down":"ENPP4 (ectonucleotide pyrophosphatase/phosphodiesterase 4)","rucaparib or vehicle":"Rucaparib","cell line":"OCI-C5x (clear cell)","technical replicate":"1","viability, normalised (%)":47.9,"activity call":"active"}
{"gene knocked down":"ENPP4 (ectonucleotide pyrophosphatase/phosphodiesterase 4)","rucaparib or vehicle":"Rucaparib","cell line":"OCI-C5x (clear cell)","technical replicate":"2","viability, normalised (%)":38.7,"activity call":"active"}
{"gene knocked down":"ENPP4 (ectonucleotide pyrophosphatase/phosphodiesterase 4)","rucaparib or vehicle":"Rucaparib","cell line":"OCI-C5x (clear cell)","technical replicate":"3","viability, normalised (%)":35.8,"activity call":"active"}
{"gene knocked down":"ENPP4 (ectonucleotide pyrophosphatase/phosphodiesterase 4)","rucaparib or vehicle":"Rucaparib","cell line":"OCI-P5x (serous)","technical replicate":"1","viability, normalised (%)":29.5,"activity call":"active"}
{"gene knocked down":"ENPP4 (ectonucleotide pyrophosphatase/phosphodiesterase 4)","rucaparib or vehicle":"Rucaparib","cell line":"OCI-P5x (serous)","technical replicate":"2","viability, normalised (%)":23.9,"activity call":"active"}
{"gene knocked down":"ENPP4 (ectonucleotide pyrophosphatase/phosphodiesterase 4)","rucaparib or vehicle":"Rucaparib","cell line":"OCI-P5x (serous)","technical replicate":"3","viability, normalised (%)":25.2,"activity call":"active"}
{"gene knocked down":"ENPP4 (ectonucleotide pyrophosphatase/phosphodiesterase 4)","rucaparib or vehicle":"Vehicle","cell line":"OCI-C5x (clear cell)","technical replicate":"1","viability, normalised (%)":38.6,"activity call":"active"}
{"gene knocked down":"ENPP4 (ectonucleotide pyrophosphatase/phosphodiesterase 4)","rucaparib or vehicle":"Vehicle","cell line":"OCI-C5x (clear cell)","technical replicate":"2","viability, normalised (%)":39.7,"activity call":"active"}
{"gene knocked down":"ENPP4 (ectonucleotide pyrophosphatase/phosphodiesterase 4)","rucaparib or vehicle":"Vehicle","cell line":"OCI-C5x (clear cell)","technical replicate":"3","viability, normalised (%)":39.6,"activity call":"active"}
{"gene knocked down":"ENPP4 (ectonucleotide pyrophosphatase/phosphodiesterase 4)","rucaparib or vehicle":"Vehicle","cell line":"OCI-P5x (serous)","technical replicate":"1","viability, normalised (%)":38.7,"activity call":"active"}
{"gene knocked down":"ENPP4 (ectonucleotide pyrophosphatase/phosphodiesterase 4)","rucaparib or vehicle":"Vehicle","cell line":"OCI-P5x (serous)","technical replicate":"2","viability, normalised (%)":25.2,"activity call":"active"}
{"gene knocked down":"ENPP4 (ectonucleotide pyrophosphatase/phosphodiesterase 4)","rucaparib or vehicle":"Vehicle","cell line":"OCI-P5x (serous)","technical replicate":"3","viability, normalised (%)":28,"activity call":"active"}
{"gene knocked down":"SLC6A3","rucaparib or vehicle":"Rucaparib","cell line":"OCI-C5x (clear cell)","technical replicate":"1","viability, normalised (%)":47.2,"activity call":"active"}
{"gene knocked down":"SLC6A3","rucaparib or vehicle":"Rucaparib","cell line":"OCI-C5x (clear cell)","technical replicate":"2","viability, normalised (%)":41.9,"activity call":"active"}
{"gene knocked down":"SLC6A3","rucaparib or vehicle":"Rucaparib","cell line":"OCI-C5x (clear cell)","technical replicate":"3","viability, normalised (%)":34.1,"activity call":"active"}
{"gene knocked down":"SLC6A3","rucaparib or vehicle":"Rucaparib","cell line":"OCI-P5x (serous)","technical replicate":"1","viability, normalised (%)":46.7,"activity call":"active"}
{"gene knocked down":"SLC6A3","rucaparib or vehicle":"Rucaparib","cell line":"OCI-P5x (serous)","technical replicate":"2","viability, normalised (%)":59.2,"activity call":"active"}
{"gene knocked down":"SLC6A3","rucaparib or vehicle":"Rucaparib","cell line":"OCI-P5x (serous)","technical replicate":"3","viability, normalised (%)":50.8,"activity call":"active"}
{"gene knocked down":"SLC6A3","rucaparib or vehicle":"Vehicle","cell line":"OCI-C5x (clear cell)","technical replicate":"1","viability, normalised (%)":31,"activity call":"active"}
{"gene knocked down":"SLC6A3","rucaparib or vehicle":"Vehicle","cell line":"OCI-C5x (clear cell)","technical replicate":"2","viability, normalised (%)":39.8,"activity call":"active"}
{"gene knocked down":"SLC6A3","rucaparib or vehicle":"Vehicle","cell line":"OCI-C5x (clear cell)","technical replicate":"3","viability, normalised (%)":38.8,"activity call":"active"}
{"gene knocked down":"SLC6A3","rucaparib or vehicle":"Vehicle","cell line":"OCI-P5x (serous)","technical replicate":"1","viability, normalised (%)":64.4,"activity call":"active"}
{"gene knocked down":"SLC6A3","rucaparib or vehicle":"Vehicle","cell line":"OCI-P5x (serous)","technical replicate":"2","viability, normalised (%)":47.2,"activity call":"active"}
{"gene knocked down":"SLC6A3","rucaparib or vehicle":"Vehicle","cell line":"OCI-P5x (serous)","technical replicate":"3","viability, normalised (%)":117,"activity call":"inactive"}
